Assay results: PMC11656746
Construct, isoform or probe ends are uncertain for at least one entry.

Tested on: GST-ZmHDZ4 (Zea mays)
Test: EMSA
Settings: 5 mM Mg2+, poly(dI-dC); EMSA: 20 ul with 20 ng protein, 5 ng DIG probe, 10 mM Tris pH 7.5, 50 mM KCl, 1 mM DTT, 5 mM MgCl2, 2.5% glycerol, 0.05% NP-40, 50 ng/ul poly(dI-dC); 20 min, 25 C; recombinant protein; protein details: N-terminal GST (pGEX-4T-1); label: DIG

Sequence | binding result
AGCAGCGTTGCAATAATCATTCTGGGCACCTTGACC (double strand) [Motif1 probe (AATCAT)] | binds
AGCAGCGTTGCAATCGCATTATCTGGGCACCTTGACC (double strand) [Motif2 probe (CG.AT.AT)] | binds
